Source: PubChem BioAssay AID1259308 (NCATS, 2017)
The deposit covers about 59,000 reagents; this is an unselected part. About 1,510 of all reagents (2.6%) were called active. 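Calls use total luciferase alone and ignore viability, so some active siRNAs may act by altering cell number.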 A number with no mark means an inactive call. Reagents against one gene are numbered here. Further read-outs or replicates are left out here.

- Purpose: 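Knock-downs that increase output of a recombinant reporter protein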 (primary screen)
- Cells: human HEK293 embryonic kidney cells stably expressing firefly luciferase (HEK-CMV-Luc2-Hygro)
- Reagent: single siRNA against human genes, 0.8 pmol siRNA per well
- Duration: 72 h
- Detection: 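Reporter luminescence and viable-cell signal on separate replicate plates, given as percent of non-targeting control and median/MAD z-scores, plus per-cell luciferase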
- Scale: total luciferase, z-score: higher = more reporter protein produced
- Rule for the call: 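Active when the median/MAD z-score for overall luciferase is greater than 3; a gene was taken forward for validation with new siRNAs if at least two of its three siRNAs passed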
- Meaning of the calls: active = raised luciferase; inactive = no rise

ZNF777 #1
- total luciferase, z-score: 0.107

ZNF777 #2
- total luciferase, z-score: -0.566

ZNF777 #3
- total luciferase, z-score: 0.462

ZNF573 #1
- total luciferase, z-score: 1.89

ZNF573 #2
- total luciferase, z-score: -0.481

ZNF573 #3
- total luciferase, z-score: -0.139

PEDS1 #1
- total luciferase, z-score: -0.813

PEDS1 #2
- total luciferase, z-score: 1.24

PEDS1 #3
- total luciferase, z-score: 1.64

CD27 #1
- total luciferase, z-score: -0.27

CD27 #2
- total luciferase, z-score: 0.697

CD27 #3
- total luciferase, z-score: 1.51

FER1L6 #1
- total luciferase, z-score: 0.901

FER1L6 #2
- total luciferase, z-score: 0.746

FER1L6 #3
- total luciferase, z-score: 1.06

CLDN7 #1
- total luciferase, z-score: 0.257

CLDN7 #2
- total luciferase, z-score: 0.882

CLDN7 #3
- total luciferase, z-score: 0.297

PLA2G2A #1
- total luciferase, z-score: -0.573

PLA2G2A #2
- total luciferase, z-score: -0.454

PLA2G2A #3
- total luciferase, z-score: 0.00221

GABRR3 #1
- total luciferase, z-score: -0.219

GABRR3 #2
- total luciferase, z-score: -0.688

GABRR3 #3
- total luciferase, z-score: -1.37

SUOX #1
- total luciferase, z-score: 1.24

SUOX #2
- total luciferase, z-score: 0.206

SUOX #3
- total luciferase, z-score: 1.25

ECE1 #1
- total luciferase, z-score: -0.685

ECE1 #2
- total luciferase, z-score: 0.115

ECE1 #3
- total luciferase, z-score: -0.159

SPANXN1 #1
- total luciferase, z-score: 0.465

SPANXN1 #2
- total luciferase, z-score: 1.25

SPANXN1 #3
- total luciferase, z-score: -0.773

3 of these entries, set out differently.
Target gene,reagent,"total luciferase, z-score"
ZNF777,3,0.462
ZNF573,1,1.89
ZNF573,2,-0.481
